Data source: PubChem BioAssay AID686937 (Drosophila RNAi Screening Center, 2013)
Test: 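Genes in the fly needed for secretion of protein constitutively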 (primary screen). System: Drosophila S2 cells expressing secreted horseradish peroxidase. Reagents: long dsRNA against Drosophila genes. Duration: about 5.5 days (5 days dsRNA, then 12 h reporter induction). Treatment: reporter expression induced after 5 days of dsRNA, read 12 h later; inducer not stated. Measured: 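Chemiluminescent measurement of peroxidase in the medium 12 h after reporter induction, following 5 days of dsRNA, given as a z-score per plate; higher means more secretion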. Scale: z-score: higher = more reporter secreted into medium.
In all, the deposit lists about 23,000 reagents; shown is a random part of those with a known target gene and a result. 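Reduced-secretion tags in replicate 1 do not always agree with the z-scores; no criterion for assigning the tags was given.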 The numbers tell different reagents against one gene apart. A plus sign joins genes that one reagent is predicted to hit. The record does not give: the amount of reagent.

predicted target	reagent	z-score, replicate 1	z-score, replicate 2	z-score, replicate 3	z-score, replicate 4	phenotype, replicate 1
CG14095	1	0.2	0.44			
FMRFa	1	0.17	0.26			
Gr97a	1	0.11	0.04			
CG42814	1	0.18	0.23			
eyg	1	-2.17	-3.02			reduced secretion
alt	1	0.47	0.61			
CG15745 (retired record)	1	0.38	0.5			
Cyt-c-d	1	0.37	0.39			
CG11629	1	-0.02	0.27			
Sr-CIV	1	0.22	0.36			
asRNA:CR31084	1	-0.68	0.6			
CG33322	1	-0.08	0.18			
Mitofilin	1	-0.56	-0.46			
CG43059	1	0.44	0.5			
5PtaseI	1	0.23	0.31			
5PtaseI	2	0.21	0.13			
Fkbp12	1	0.09	0.09			
Src64B	1	0.28	0.3			
CG3407	1	0.16	0.25			
Acbp6	1	0.38	0.31			
Cyp6a2	1	0.13	0.46			
CG17195	1	0.13	0.36			
Tbca	1	0.26	0.25			
Roe1	1	-0.02	-0.11			
BORCS5	1	0.39	0.37			
Cpr12A	1	0.41	0.39			
NK7.1	1	0.54	0.57			
gsb-n	1	0.3				
gsb-n	2	0.26	-0.2			
CG31948	1	0.12	0.25			
Ir56c	1	0.26	0.16			
lectin-24A	1	0.18	0.12			
CG13560	1	-0.02	0.25			
Act57B	1	0.25	0.27			
mRpS28	1	-0.03	0.16			
CG17544	1	0.42	0.36			
Pdp1	1	-3.61	-2.31			reduced secretion
Pdp1	2	-4.04	-2.21			reduced secretion
Pdp1	3	0.02	0.14			
CG18746	1	0.35	-0.08			
CG12784	1	0.43	0.8			
pasha	1	-0.25	-0.08			
CG9646	1	0.22	0.23			
CG13369	1	0.4	0.17			
ECSIT	1	0.1	0.42			
CG33467	1	0.57	0.19			
CG33467	2	-0.53	-0.05			
fs(1)K10	1	0.28	-0.12			
TBC1D5	1	0.4	0.4			
hd	1	0.43	0.62			
CG13983	1	0.4	0.3			
eIF4H2	1	0.28	0.42			
Lhr	1	0.48	0.38			
Hex-A	1	-0.01	-0.54			
CG3792	1	0.23	0.29			
Tsp2A	1	0.19	0.17			
SkpD	1	0.5	0.09			
Ca-alpha1T	1	0.32	0.13			
Ca-alpha1T	2	0	0.1	-1.3	0.26	
Ca-alpha1T	3	0.26	0.57			
Ca-alpha1T	4	0.15	0.42			
Ca-alpha1T	5	0.04	-0.45			
Srx	1	0.04	0.17			
ci	1	0.31	0.31			
ath	1	-0.38	0.21			
Msh6	1	0.15	0.13			
zuc	1	0.28	0.32			
Unc-115b + p24-2	1	-0.34	-0.22			
Nna1	1	0.29	0.41	1.92	0.31	
Nna1	2	0.35	0.27			
robo2	1	0.29	0.25			
robo2	2	0.44	0.2			
robo2	3	0.17	0.24			
robo2	4	0.18	0.44			
Fancm	1	0.21	-0.27			
COX7A	1	-0.42	-0.71			
Arp6	1	0.43	0.33			
CG13474	1	-0.72	-0.42			
Ada2a + Polr2D	1	0.34	-0.33			
Ada2a + Polr2D	2	-3.07	-1.07			reduced secretion
l(2)05287	1	0.09	0.14			
l(2)05287	2	-0.05	-0.33			
